Our source for the binding values is patent US20240352143A1.

The chains behind the UniProt entries cited, without tags or fusion partners. Where a name states a change or a piece, a line headed by the entry shows the natural chain unless it says otherwise.
UniProt P21589: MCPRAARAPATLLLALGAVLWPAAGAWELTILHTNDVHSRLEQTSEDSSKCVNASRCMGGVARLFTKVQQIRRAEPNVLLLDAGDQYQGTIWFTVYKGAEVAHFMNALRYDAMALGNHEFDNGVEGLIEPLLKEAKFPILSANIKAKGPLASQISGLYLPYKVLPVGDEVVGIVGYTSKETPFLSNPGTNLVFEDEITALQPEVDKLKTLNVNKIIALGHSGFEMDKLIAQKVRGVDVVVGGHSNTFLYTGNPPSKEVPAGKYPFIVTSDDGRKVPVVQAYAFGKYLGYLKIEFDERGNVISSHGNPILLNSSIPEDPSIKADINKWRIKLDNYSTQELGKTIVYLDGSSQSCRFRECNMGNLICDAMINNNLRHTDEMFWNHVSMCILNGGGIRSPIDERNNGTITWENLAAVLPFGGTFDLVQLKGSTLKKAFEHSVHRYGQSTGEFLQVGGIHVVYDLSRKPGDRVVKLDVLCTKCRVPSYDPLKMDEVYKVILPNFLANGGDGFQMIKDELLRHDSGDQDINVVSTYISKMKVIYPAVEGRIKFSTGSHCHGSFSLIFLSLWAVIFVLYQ

Results are given in words; binding and its absence hold for the method and conditions named. Some entries that bind do so weakly or less than the wild type.

B1: CL25_hu_10-6 (antibody, V domains shown)
VH: EVQLVQSGAEVKKPGESLKISCKGSGYTFTSYGLSWVRQMPGKGLEWMGEIYPGSGNTYYNEKFKGQVTISADKSISTAYLQWSSLKASDTAMYYCARYDYLGSSYGFDYWGAGTTVTVSS
VL: AIRMTQSPSSFSASTGDRVTITCKASQDVSTAVAWYQQKPGKAPKLLIYSASYRYSGVPSRFSGSGSGTDFTLTISCLQSEDFATYYCQQHYNTPYTFGGGTKLEIK
B2: CL25_hu_11-6 (antibody, V domains shown)
VH: QVQLVQSGAEVKKPGASVKVSCKASGYTFTSYGLSWVRQATGQGLEWMGEIYPGSGNTYYNEKFKGRVTMTANTSISTAYMELSSLRSEDTAVYYCARYDYLGSSYGFDYWGAGTTVTVSS
VL: AIRMTQSPSSFSASTGDRVTITCKASQDVSTAVAWYQQKPGKAPKLLIYSASYRYSGVPSRFSGSGSGTDFTLTISCLQSEDFATYYCQQHYNTPYTFGGGTKLEIK
B3: CL25_hu_10-4 (antibody, V domains shown)
VH: EVQLVQSGAEVKKPGESLKISCKGSGYTFTSYGLSWVRQMPGKGLEWMGEIYPGSGNTYYNEKFKGQVTISADKSISTAYLQWSSLKASDTAMYYCARYDYLGSSYGFDYWGAGTTVTVSS
VL: DIQMTQSPSSLSASVGDRVTITCKASQDVSTAVAWYQQKPGKAPKLLLYSASYRYSGVPSRFSGSGSGTDYTLTISSLQPEDFATYYCQQHYNTPYTFGGGTKLEIK
B4: CL25_hu_9-4 (antibody, V domains shown)
VH: QVQLVQSGAEVKKPGSSVKVSCKASGYTFTSYGLSWVRQAPGQGLEWMGEIYPGSGNTYYNEKFKGRVTITADESTSTAYMELSSLRSEDTAVYYCARYDYLGSSYGFDYWGAGTTVTVSS
VL: DIQMTQSPSSLSASVGDRVTITCKASQDVSTAVAWYQQKPGKAPKLLLYSASYRYSGVPSRFSGSGSGTDYTLTISSLQPEDFATYYCQQHYNTPYTFGGGTKLEIK
B5: CL25_hu_9-6 (antibody, V domains shown)
VH: QVQLVQSGAEVKKPGSSVKVSCKASGYTFTSYGLSWVRQAPGQGLEWMGEIYPGSGNTYYNEKFKGRVTITADESTSTAYMELSSLRSEDTAVYYCARYDYLGSSYGFDYWGAGTTVTVSS
VL: AIRMTQSPSSFSASTGDRVTITCKASQDVSTAVAWYQQKPGKAPKLLIYSASYRYSGVPSRFSGSGSGTDFTLTISCLQSEDFATYYCQQHYNTPYTFGGGTKLEIK
B6: CL25_hu_8-4 (antibody, V domains shown)
VH: QVQLVQSGAEVKKPGASVKVSCKASGYTFTSYGLSWVRQATGQGLEWMGEIYPGSGNTYYNEKFKGRVTMTRNTSISTAYMELSSLRSEDTAVYYCARYDYLGSSYGFDYWGAGTTVTVSS
VL: DIQMTQSPSSLSASVGDRVTITCKASQDVSTAVAWYQQKPGKAPKLLLYSASYRYSGVPSRFSGSGSGTDYTLTISSLQPEDFATYYCQQHYNTPYTFGGGTKLEIK
B7: CL25_hu_11-4 (antibody, V domains shown)
VH: QVQLVQSGAEVKKPGASVKVSCKASGYTFTSYGLSWVRQATGQGLEWMGEIYPGSGNTYYNEKFKGRVTMTANTSISTAYMELSSLRSEDTAVYYCARYDYLGSSYGFDYWGAGTTVTVSS
VL: DIQMTQSPSSLSASVGDRVTITCKASQDVSTAVAWYQQKPGKAPKLLLYSASYRYSGVPSRFSGSGSGTDYTLTISSLQPEDFATYYCQQHYNTPYTFGGGTKLEIK
B8: CL25_hu_8-6 (antibody, V domains shown)
VH: QVQLVQSGAEVKKPGASVKVSCKASGYTFTSYGLSWVRQATGQGLEWMGEIYPGSGNTYYNEKFKGRVTMTRNTSISTAYMELSSLRSEDTAVYYCARYDYLGSSYGFDYWGAGTTVTVSS
VL: AIRMTQSPSSFSASTGDRVTITCKASQDVSTAVAWYQQKPGKAPKLLIYSASYRYSGVPSRFSGSGSGTDFTLTISCLQSEDFATYYCQQHYNTPYTFGGGTKLEIK
B9: CL25_hu_11-5 (antibody, V domains shown)
VH: QVQLVQSGAEVKKPGASVKVSCKASGYTFTSYGLSWVRQATGQGLEWMGEIYPGSGNTYYNEKFKGRVTMTANTSISTAYMELSSLRSEDTAVYYCARYDYLGSSYGFDYWGAGTTVTVSS
VL: DIVMTQSPDSLAVSLGERATINCKASQDVSTAVAWYQQKPGQPPKLLIYSASYRYSGVPDRFSGSGSGTDFTLTISSLQAEDVAVYYCQQHYNTPYTFGGGTKLEIK
B10: CL25_hu_8-5 (antibody, V domains shown)
VH: QVQLVQSGAEVKKPGASVKVSCKASGYTFTSYGLSWVRQATGQGLEWMGEIYPGSGNTYYNEKFKGRVTMTRNTSISTAYMELSSLRSEDTAVYYCARYDYLGSSYGFDYWGAGTTVTVSS
VL: DIVMTQSPDSLAVSLGERATINCKASQDVSTAVAWYQQKPGQPPKLLIYSASYRYSGVPDRFSGSGSGTDFTLTISSLQAEDVAVYYCQQHYNTPYTFGGGTKLEIK
B11: CL25_hu_9-5 (antibody, V domains shown)
VH: QVQLVQSGAEVKKPGSSVKVSCKASGYTFTSYGLSWVRQAPGQGLEWMGEIYPGSGNTYYNEKFKGRVTITADESTSTAYMELSSLRSEDTAVYYCARYDYLGSSYGFDYWGAGTTVTVSS
VL: DIVMTQSPDSLAVSLGERATINCKASQDVSTAVAWYQQKPGQPPKLLIYSASYRYSGVPDRFSGSGSGTDFTLTISSLQAEDVAVYYCQQHYNTPYTFGGGTKLEIK

The target of this assay is cell surface CD73 on MDA-MB-231 and A375 cells (human) (UniProt P21589). The assay is described as follows: flow cytometry on MDA-MB-231 cells, antibody 30 min on ice, PE-conjugated secondary antibody, GMFI. A general note: A flow cytometer gives signals particle by particle.
For the molecule B1, the binding result is on record as “binds”.

For B2, the binding entry is listed as “binds”.

Take B3: the binding entry is on record as “binds”.

Take B4: the binding result is “binds”.

For the molecule B5, the binding result is reported as “binds”.

For the molecule B6, the binding entry is recorded as “binds”.

B7: the binding result is on record as “binds”.

As to B8, the binding result is reported as “binds”.

As for B9, the binding result was “binds”.

Take B10: the binding entry was “binds”.

Take B11: the binding result is “binds”.
